This passage reports binding results from publication PMC10868123.

Protein sequences, listed by entry. Tags and fused reporters are not part of them. Lines headed by an entry give the natural chain unless they say otherwise; changes in a name come on top.
UniProt P61026: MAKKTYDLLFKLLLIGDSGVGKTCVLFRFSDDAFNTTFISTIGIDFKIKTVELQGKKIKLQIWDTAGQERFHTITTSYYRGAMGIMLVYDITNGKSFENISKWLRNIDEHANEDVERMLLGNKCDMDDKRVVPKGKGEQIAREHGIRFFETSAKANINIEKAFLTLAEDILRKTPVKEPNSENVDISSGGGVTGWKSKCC
UniProt Q709C8: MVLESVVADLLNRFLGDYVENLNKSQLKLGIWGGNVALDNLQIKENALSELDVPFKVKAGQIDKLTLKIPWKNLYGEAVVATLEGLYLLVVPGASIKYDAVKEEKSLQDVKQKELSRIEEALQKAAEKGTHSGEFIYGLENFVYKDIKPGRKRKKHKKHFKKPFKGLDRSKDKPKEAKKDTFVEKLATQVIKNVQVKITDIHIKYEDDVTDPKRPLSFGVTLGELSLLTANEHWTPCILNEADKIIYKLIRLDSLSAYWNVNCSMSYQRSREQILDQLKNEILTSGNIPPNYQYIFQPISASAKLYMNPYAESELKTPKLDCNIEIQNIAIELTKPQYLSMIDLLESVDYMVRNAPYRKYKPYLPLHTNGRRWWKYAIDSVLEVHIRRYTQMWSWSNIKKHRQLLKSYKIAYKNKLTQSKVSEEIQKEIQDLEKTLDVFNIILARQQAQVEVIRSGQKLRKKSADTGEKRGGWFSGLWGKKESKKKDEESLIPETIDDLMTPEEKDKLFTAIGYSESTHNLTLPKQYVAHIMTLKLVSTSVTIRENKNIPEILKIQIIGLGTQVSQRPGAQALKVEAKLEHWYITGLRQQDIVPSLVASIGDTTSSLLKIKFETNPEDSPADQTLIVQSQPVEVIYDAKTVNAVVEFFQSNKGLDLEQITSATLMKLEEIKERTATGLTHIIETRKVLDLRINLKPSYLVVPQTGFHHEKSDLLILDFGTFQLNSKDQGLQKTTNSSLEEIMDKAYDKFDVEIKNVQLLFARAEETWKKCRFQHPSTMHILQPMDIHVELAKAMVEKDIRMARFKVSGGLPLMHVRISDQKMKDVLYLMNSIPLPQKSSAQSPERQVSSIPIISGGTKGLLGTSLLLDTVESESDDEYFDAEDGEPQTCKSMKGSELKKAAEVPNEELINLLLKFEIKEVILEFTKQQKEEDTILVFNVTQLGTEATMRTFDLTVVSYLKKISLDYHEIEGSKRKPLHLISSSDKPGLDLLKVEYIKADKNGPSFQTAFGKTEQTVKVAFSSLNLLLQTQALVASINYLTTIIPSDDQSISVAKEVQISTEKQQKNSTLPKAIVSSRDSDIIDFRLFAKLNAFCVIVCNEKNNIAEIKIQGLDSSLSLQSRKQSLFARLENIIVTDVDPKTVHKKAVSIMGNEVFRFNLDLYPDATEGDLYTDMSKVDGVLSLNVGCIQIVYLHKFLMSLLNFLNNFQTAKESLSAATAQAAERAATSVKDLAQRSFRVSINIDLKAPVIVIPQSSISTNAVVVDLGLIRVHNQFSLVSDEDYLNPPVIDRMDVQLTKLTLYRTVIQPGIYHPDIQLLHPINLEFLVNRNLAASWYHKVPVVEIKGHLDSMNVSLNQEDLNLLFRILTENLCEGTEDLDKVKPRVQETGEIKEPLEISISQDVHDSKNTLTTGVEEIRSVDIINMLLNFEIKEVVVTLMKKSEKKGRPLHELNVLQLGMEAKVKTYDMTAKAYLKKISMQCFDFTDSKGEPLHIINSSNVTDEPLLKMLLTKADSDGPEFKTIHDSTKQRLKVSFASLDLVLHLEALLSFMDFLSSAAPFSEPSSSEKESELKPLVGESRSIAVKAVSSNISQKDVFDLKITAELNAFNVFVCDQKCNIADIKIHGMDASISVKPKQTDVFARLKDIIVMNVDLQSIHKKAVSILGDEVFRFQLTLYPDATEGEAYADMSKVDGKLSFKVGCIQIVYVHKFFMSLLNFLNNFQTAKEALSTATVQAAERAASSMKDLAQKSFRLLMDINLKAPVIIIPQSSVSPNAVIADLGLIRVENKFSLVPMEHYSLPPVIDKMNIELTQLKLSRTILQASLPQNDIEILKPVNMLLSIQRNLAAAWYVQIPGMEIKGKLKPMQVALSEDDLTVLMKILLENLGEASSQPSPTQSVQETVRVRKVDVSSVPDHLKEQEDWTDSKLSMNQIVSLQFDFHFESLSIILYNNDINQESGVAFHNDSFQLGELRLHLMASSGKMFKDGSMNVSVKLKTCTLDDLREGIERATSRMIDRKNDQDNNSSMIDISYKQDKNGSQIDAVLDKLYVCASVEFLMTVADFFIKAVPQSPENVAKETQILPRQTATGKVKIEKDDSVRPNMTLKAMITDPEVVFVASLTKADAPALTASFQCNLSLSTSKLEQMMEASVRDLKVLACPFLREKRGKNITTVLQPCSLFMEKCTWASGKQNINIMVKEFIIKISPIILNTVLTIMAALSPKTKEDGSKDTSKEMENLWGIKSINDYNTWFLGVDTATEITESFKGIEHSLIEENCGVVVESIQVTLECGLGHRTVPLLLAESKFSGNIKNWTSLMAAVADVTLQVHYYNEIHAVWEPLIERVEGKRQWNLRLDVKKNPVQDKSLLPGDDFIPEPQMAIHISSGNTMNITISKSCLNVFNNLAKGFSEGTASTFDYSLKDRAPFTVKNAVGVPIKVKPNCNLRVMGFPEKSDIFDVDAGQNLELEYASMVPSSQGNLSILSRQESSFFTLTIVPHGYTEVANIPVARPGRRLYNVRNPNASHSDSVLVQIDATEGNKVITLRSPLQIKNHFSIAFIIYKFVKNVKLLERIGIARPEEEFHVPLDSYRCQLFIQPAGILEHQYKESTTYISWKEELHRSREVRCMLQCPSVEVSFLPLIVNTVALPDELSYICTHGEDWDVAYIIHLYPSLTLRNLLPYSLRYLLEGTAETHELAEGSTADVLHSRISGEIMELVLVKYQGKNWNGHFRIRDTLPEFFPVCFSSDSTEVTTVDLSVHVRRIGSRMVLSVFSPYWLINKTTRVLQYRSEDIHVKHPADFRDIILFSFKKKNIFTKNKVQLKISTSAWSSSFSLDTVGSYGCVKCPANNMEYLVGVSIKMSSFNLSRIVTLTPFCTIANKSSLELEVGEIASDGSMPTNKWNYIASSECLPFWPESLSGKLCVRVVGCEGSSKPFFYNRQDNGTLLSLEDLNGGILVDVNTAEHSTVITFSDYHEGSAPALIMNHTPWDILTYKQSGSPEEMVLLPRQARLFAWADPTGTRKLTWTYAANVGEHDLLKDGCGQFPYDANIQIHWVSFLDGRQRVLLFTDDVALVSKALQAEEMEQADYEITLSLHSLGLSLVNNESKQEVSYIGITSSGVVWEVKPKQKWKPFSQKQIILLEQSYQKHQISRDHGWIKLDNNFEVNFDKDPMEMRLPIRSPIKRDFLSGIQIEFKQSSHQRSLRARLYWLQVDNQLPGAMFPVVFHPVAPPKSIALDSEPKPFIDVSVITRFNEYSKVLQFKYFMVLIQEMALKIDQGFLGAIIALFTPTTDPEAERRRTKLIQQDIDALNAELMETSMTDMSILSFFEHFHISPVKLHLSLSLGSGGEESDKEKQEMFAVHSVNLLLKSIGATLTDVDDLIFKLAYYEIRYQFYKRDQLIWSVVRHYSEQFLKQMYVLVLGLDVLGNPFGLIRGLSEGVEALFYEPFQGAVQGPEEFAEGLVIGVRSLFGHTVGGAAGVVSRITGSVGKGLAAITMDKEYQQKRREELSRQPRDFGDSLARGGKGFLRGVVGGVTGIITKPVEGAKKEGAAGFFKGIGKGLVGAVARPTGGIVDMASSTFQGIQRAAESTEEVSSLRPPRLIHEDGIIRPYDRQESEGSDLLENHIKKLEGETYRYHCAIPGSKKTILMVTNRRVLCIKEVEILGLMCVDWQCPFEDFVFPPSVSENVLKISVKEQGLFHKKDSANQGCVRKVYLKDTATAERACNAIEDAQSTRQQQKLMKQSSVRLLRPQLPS

Assay [1] concerns the target eGFP-Rab10 WT (UniProt P61026). The experiment in a line: co-IP; GFP-Rab10 (WT, T73E, T73A) precipitated with GFP-Trap agarose for 2 h at 4°C from lysate of transfected HEK-293 FT cells; AP-MS buffer (10 mM Tris/Cl pH 7.5, 150 mM NaCl, 10% glycerol, 0.5 mM EDTA, 0.5% Nonidet P40); immunoblot for VPS13C-Myc or endogenous VPS13C; also after treatment of the cells with MLi-2 (200 nM, 16 h and a further 2 h). In general terms: A western blot detects proteins with antibodies after separation by electrophoresis.

Assay [2] addresses VPS13C-Myc-His (UniProt Q709C8). Put plainly: co-IP; VPS13C-Myc precipitated with magnetic c-Myc beads overnight at 4°C from lysate of transfected HEK-293 FT cells; AP-MS buffer (10 mM Tris/Cl pH 7.5, 150 mM NaCl, 10% glycerol, 0.5 mM EDTA, 0.5% Nonidet P40); immunoblot for GFP.
In assay [3] the target is Rab10, endogenous in HEK-293 FT cells (human (endogenous in HEK-293 FT)) (UniProt P61026). Put plainly: proximity ligation; endogenous VPS13C and Rab10 in fixed, permeabilised HEK-293 FT cells (control or VPS13C knockdown; DMSO or 200 nM MLi-2); Duolink In Situ Red kit with rabbit anti-VPS13C and mouse anti-Rab10.
Assay [4] addresses phosphomimetic GFP-Rab10 T73E (UniProt P61026). The experiment in a line: co-IP; GFP-Rab10 (WT, T73E, T73A) precipitated with GFP-Trap agarose for 2 h at 4°C from lysate of transfected HEK-293 FT cells; AP-MS buffer (10 mM Tris/Cl pH 7.5, 150 mM NaCl, 10% glycerol, 0.5 mM EDTA, 0.5% Nonidet P40); immunoblot for VPS13C-Myc or endogenous VPS13C; also after treatment of the cells with MLi-2 (200 nM, 16 h and a further 2 h).

The target in assay [5] is Rab10, endogenous in hiPSC-derived dopaminergic neurons (human (endogenous in hiPSC-derived dopaminergic neurons)) (UniProt P61026). The experiment in a line: proximity ligation; endogenous VPS13C and Rab10 in fixed, permeabilised hiPSC-derived dopaminergic neurons (control or VPS13C knockdown); Duolink In Situ Red kit with rabbit anti-VPS13C and mouse anti-Rab10.

These are yes or no findings as the source states them, for the method shown. In cells and extracts the contact can be indirect. Some results given as binding are weak or reduced against the parent protein; the word gives no strength.

With “VPS13C-Myc-His (from UniProt Q709C8 1-3753)”, the binding entry in assay [1] was “binds”.

For “eGFP-Rab10 WT (from UniProt P61026 1-200)”, the binding entry in assay [2] was “binds”.

For the substance “VPS13C, endogenous in HEK-293 cells (from UniProt Q709C8 1-3753)”, the binding result in assay [3], in assay [1] and in assay [4] was “binds” each time.

Turning to “VPS13C, endogenous in hiPSC-derived dopaminergic neurons (from UniProt Q709C8 1-3753)”, the binding entry in assay [5] is on record as “binds”.
